Measured values reported in US9901111B2, “Taste-improving peptide” (Takasago International Corporation, priority 2011, dated 2018).
Some entries share one result that the patent states for a list of compounds.

Assay: Sensory evaluation of sourness-masking effect in yoghurt drink by five special panelists
Details: Example 4; yoghurt drink stored at 10° C. for 10 days
Experimental: The peptide mixture obtained in the above procedure 1 was centrifuged (20,000 G) to obtain an aqueous layer. The aqueous layer was treated with UF membranes of 20 nm, 5 kDa and 1 kDa, respectively, and permeate solutions were collected. Each permeate solution obtained through the UF membranes or the peptide mixture before treatment were added to a commercially available yoghurt drink. After the yoghurt drink was stored at 10° C. for 10 days, five special panelists conducted sensory evaluation regarding a sourness-masking effect. Note that each sample was prepared such that the addition amount is 0.1% calculated in terms of the peptide mixture. A commercially available yoghurt drink without addition was used as control. Evaluation was performed by scoring from 0 to 3 shown in Table 1 at 0.5 point intervals.
In the same manner as in the above procedure 2, the obtained 13 fractions were added to a commercially available yoghurt drink, respectively. […] Each sample was prepared such that the addition amount is 0.1% calculated in terms of the peptide mixture. […]
In the same manner as in the above procedure 2, the obtained four fractions were added to a commercially available yoghurt drink, respectively. […] Each sample was prepared such that the addition amount is 0.1% calculated in terms of the peptide mixture. […]

Val-Pro [VP]
concentration giving a high sourness-masking effect: ≥ 0.01 ppm
